According to patent US7923441B2, “Enhancement of activity and/or duration of action of soft anti-inflammatory steroids for topical or other local application” (priority 2003, dated 2011):
Some results were stated once for a whole list of compounds, not compound by compound.

System: forearm of a human volunteer
Test: Human vasoconstriction (blanching) testing
Type: in vivo
Details: co-applied with loteprednol etabonate, at some tested concentrations
Experimental: Test compounds at varying mM concentrations as noted below were dissolved in ethanol/propylene glycol (9/1) solution, and 20 μL of the mixtures were applied to filter paper discs, 0.7 cm in diameter. After ethanol evaporation, each disc was attached to waterproof adhesive tape, then applied to the forearm of a human volunteer and left in place for 4 hours. Groups of 8 forearms were tested at each concentration. The intensity of vasoconstriction was judged at 2, 4, 6, 8, 10, 12, 18, 24 and 36 hours after removal of the discs.
The grading scale for the vasoconstriction activity was as follows: 0, normal skin; 1, slight pallor of indistinct outline; 2, pallor with at least two corners outlined; 3, even pallor with a clear outline of the application sites; 4, very intense pallor. The scores were totaled at each concentration at each time after removal to give a total score at each time interval and an overall total for each concentration. The higher the total score, the greater the blanching or anti-inflammatory effect.

**Q.** How did the “time period during which loteprednol etabonate displayed significant activity, extended to” value turn out when COC(=O)[C@@]1(O)CCC2C3CCC4=CC(=O)C=CC4(C)C3C(O)CC21C (stereo partly drawn) [Δ^1-Cortienic Acid Methyl Ester, methyl 11β,17α-dihydroxyandrosta-1,4-dien-3-one-17β-carboxylate] was run?
**A.** ≥ 24 h
